PubChem BioAssay AID192 (DTP/NCI, 2004)
The list does not hold the whole screen: it is rich in T/C values a quarter to a half above the control, in often repeated tests (any T/C) and in doses without a T/C. Further doses and runs are listed elsewhere. T/C gives the treated animals as a percentage of the vehicle group. Some doses have a count of surviving animals in place of a T/C: the source files T/C as zero there, which appears to mark a toxic dose or a test without result, not a measured value. Some survivor counts are full or nearly so, which does not show that the dose was tolerated: survival well below the control is almost never listed, so the zero probably covers shortened survival too. Counts of survivors are from the toxicity check (mostly the fifth day) where no day follows; animals may have died later. Schedules are NCI's codes, taken here to give the interval after Q, in days (D) or hours (H), and the number of doses after X. For survival time, the PubChem record calls one and a half times the control and up active, and a quarter to a half above the control has no call in these data; cut-offs in other NCI protocols can differ. Some T/C values carry the count of animals alive at the toxicity check (mostly the fifth day); where none is given, no animal had died by that day. Some doses were run more than once; their values stand side by side, smallest first. Additions like (4×) say how often a value occurs here.

System: BDF1 mice, B16 melanoma ip, median survival T/C
Experiment: NCI In Vivo Anticancer Drug Screen. Data for tumor model B16 Melanoma (intraperitoneal) in B6D2F1 (BDF1) mice
Conditions: T/C endpoint: median survival time, higher T/C = longer survival
Outline: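 Values are ratios of treated (T) to vehicle-control (C) measurements of survival or tumor size in tumor-bearing mice.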

[1] = dose: 12.5 mg/kg/injection, schedule: Q01DX009 (ip), vehicle: saline with Tween-80
[2] = dose: 25.0 mg/kg/injection, schedule: Q01DX009 (ip), vehicle: saline with Tween-80

CCOc1ccc(-c2nc3ccc(-c4nc5ccc(N6CCN(C)CC6)cc5[nH]4)cc3[nH]2)cc1
survivor count (dose: 25.0 mg/kg/injection, schedule: Q01DX009 (ip), vehicle: saline): 10 of 10

Cc1c(N)nc([C@H](CC(N)=O)NC[C@H](N)C(N)=O)nc1C(=O)N[C@H](C(=O)N[C@H](C)[C@@H](O)[C@H](C)C(=O)N[C@H](C(=O)NCCc1nc(-c2nc(C(=O)NCCC[S+](C)C)cs2)cs1)[C@@H](C)O)C(OC1OC(CO)C(O)C(O)C1OC1OC(CO)C(O)C(OC(N)=O)C1O)c1cnc[nH]1 (stereo partly drawn)
T/C (dose: 0.5 mg/kg/injection, schedule: Q01DX009 (ip), vehicle: saline): 100, 104, 106, 107 % of control | T/C (dose: 1.0 mg/kg/injection, schedule: Q01DX009 (ip), vehicle: saline): 92, 102, 107, 111, 132 % of control | T/C (dose: 2.0 mg/kg/injection, schedule: Q01DX009 (ip), vehicle: saline, evaluated on day 5): 106, 108, 110, 116, 118 % of control | T/C (dose: 2.0 mg/kg/injection, schedule: Q01DX009 (ip), vehicle: saline, evaluated on day 60): 106 % of control | T/C (dose: 3.0 mg/kg/injection, schedule: Q01DX009 (ip), vehicle: saline, evaluated on day 45): 105 % of control | T/C (dose: 3.0 mg/kg/injection, schedule: Q01DX009 (ip), vehicle: saline, evaluated on day 60): 92, 95, 104 (2×), 105, 107 (3×), 111 (2×), 121, 123 % of control | survivor count (dose: 3.0 mg/kg/injection, schedule: Q01DX009 (ip), vehicle: saline): 6 of 6 | T/C (dose: 4.0 mg/kg/injection, schedule: Q01DX009 (ip), vehicle: saline, evaluated on day 5): 97, 107, 110, 117, 137 % of control | T/C (dose: 4.0 mg/kg/injection, schedule: Q01DX009 (ip), vehicle: saline, evaluated on day 60): 105 and 106 % of control | T/C (dose: 6.0 mg/kg/injection, schedule: Q01DX009 (ip), vehicle: saline, evaluated on day 45): 111 % of control | T/C (dose: 6.0 mg/kg/injection, schedule: Q01DX009 (ip), vehicle: saline, evaluated on day 60): 89 [5 of 6 alive], 90, 92, 107, 108, 109 (2×), 114, 116, 119, 121 (2×), 143 % of control | T/C (dose: 8.0 mg/kg/injection, schedule: Q01DX009 (ip), vehicle: saline, evaluated on day 5): 98, 103, 108, 128, 142 % of control | T/C (dose: 8.0 mg/kg/injection, schedule: Q01DX009 (ip), vehicle: saline, evaluated on day 60): 102 and 109 % of control | T/C (dose: 12.0 mg/kg/injection, schedule: Q01DX009 (ip), vehicle: saline, evaluated on day 45): 102 % of control | T/C (dose: 12.0 mg/kg/injection, schedule: Q01DX009 (ip), vehicle: saline, evaluated on day 60): 86, 92, 97, 104, 104 [5 of 6 alive], 105, 106, 107, 114 [5 of 6 alive], 116, 121, 122, 123 % of control | T/C (dose: 16.0 mg/kg/injection, schedule: Q01DX009 (ip), vehicle: saline, evaluated on day 5): 108 (2×), 113, 114, 134 % of control | T/C (dose: 16.0 mg/kg/injection, schedule: Q01DX009 (ip), vehicle: saline, evaluated on day 60): 111 and 115 % of control | T/C (dose: 24.0 mg/kg/injection, schedule: Q01DX009 (ip), vehicle: saline, evaluated on day 45): 97 % of control | T/C (dose: 24.0 mg/kg/injection, schedule: Q01DX009 (ip), vehicle: saline, evaluated on day 60): 88, 91, 94 [5 of 6 alive], 95, 102, 109, 115, 116, 125, 134 % of control | survivor count (dose: 24.0 mg/kg/injection, schedule: Q01DX009 (ip), vehicle: saline): 6 of 6 | survivor count (dose: 31.3 mg/kg/injection, schedule: Q01DX009 (ip), vehicle: saline): 6 of 6 | T/C (dose: 32.0 mg/kg/injection, schedule: Q01DX009 (ip), vehicle: saline, evaluated on day 5): 50, 51, 63, 77 % of control | T/C (dose: 32.0 mg/kg/injection, schedule: Q01DX009 (ip), vehicle: saline, evaluated on day 60): 117 % of control | survivor count (dose: 32.0 mg/kg/injection, schedule: Q01DX009 (ip), vehicle: saline): 10 of 10 | survivor count (dose: 62.5 mg/kg/injection, schedule: Q01DX009 (ip), vehicle: saline): 5 of 6 | T/C (dose: 64.0 mg/kg/injection, schedule: Q01DX009 (ip), vehicle: saline): 32, 33, 41, 55 % of control | survivor count (dose: 125.0 mg/kg/injection, schedule: Q01DX009 (ip), vehicle: saline): 5 of 6 | survivor count (dose: 250.0 mg/kg/injection, schedule: Q01DX009 (ip), vehicle: saline): 4 of 6

COc1cc(C=O)cc(O)c1O
survivor count (dose: 400.0 mg/kg/injection, schedule: Q01DX009 (ip), vehicle: saline): 10 of 10

COC(=O)CC(=O)c1ccc(C)cc1
survivor count (dose: 400.0 mg/kg/injection, schedule: Q01DX009 (ip), vehicle: Klucel (hydroxypropylcellulose) (HPC)): 10 of 10

O=C(NO)c1ccncc1
survivor count (dose: 400.0 mg/kg/injection, schedule: Q01DX009 (ip), vehicle: water): 6 of 6 | T/C (dose: 500.0 mg/kg/injection, schedule: Q01DX009 (ip), vehicle: water): 126 % of control | survivor count (dose: 800.0 mg/kg/injection, schedule: Q01DX009 (ip), vehicle: water): 6 of 6 | survivor count (dose: 1000.0 mg/kg/injection, schedule: Q01DX009 (ip), vehicle: water): 0 of 6

CC[CH2][Pb]([Cl])([CH2]CC)[CH2]CC
survivor count (dose: 0.18 mg/kg/injection, schedule: Q01DX009 (ip), vehicle: DMSO): 10 of 10 | survivor count (dose: 0.37 mg/kg/injection, schedule: Q01DX009 (ip), vehicle: DMSO): 10 of 10 | survivor count (dose: 0.75 mg/kg/injection, schedule: Q01DX009 (ip), vehicle: DMSO): 10 of 10 | survivor count (dose: 5.0 mg/kg/injection, schedule: Q01DX009 (ip), vehicle: DMSO): 10 of 10 | survivor count (dose: 10.0 mg/kg/injection, schedule: Q01DX009 (ip), vehicle: DMSO): 10 of 10 | survivor count (dose: 12.5 mg/kg/injection, schedule: Q01DX009 (ip), vehicle: DMSO): 0 of 8 | survivor count (dose: 20.0 mg/kg/injection, schedule: Q01DX009 (ip), vehicle: DMSO): 9 of 10 | survivor count (dose: 25.0 mg/kg/injection, schedule: Q01DX009 (ip), vehicle: DMSO): 0 of 8 | survivor count (dose: 50.0 mg/kg/injection, schedule: Q01DX009 (ip), vehicle: DMSO): 0 of 7 | survivor count (dose: 0.6 micrograms/kg/injection, schedule: Q01DX009 (ip), vehicle: DMSO): 10 of 10 | survivor count (dose: 1.2 micrograms/kg/injection, schedule: Q01DX009 (ip), vehicle: DMSO): 9 of 10 | survivor count (dose: 2.5 micrograms/kg/injection, schedule: Q01DX009 (ip), vehicle: DMSO): 9 of 9 | survivor count (dose: 22.0 micrograms/kg/injection, schedule: Q01DX009 (ip), vehicle: DMSO): 9 of 9 | survivor count (dose: 45.0 micrograms/kg/injection, schedule: Q01DX009 (ip), vehicle: DMSO): 10 of 10 | survivor count (dose: 90.0 micrograms/kg/injection, schedule: Q01DX009 (ip), vehicle: DMSO): 9 of 9 | survivor count (dose: 180.0 micrograms/kg/injection, schedule: Q01DX009 (ip), vehicle: DMSO): 8 of 9

O=C(C=C(C(F)(F)F)C(F)(F)F)c1cccc([N+](=O)[O-])c1
survivor count (dose: 1.56 mg/kg/injection, schedule: Q01DX009 (ip), vehicle: saline with Tween-80): 10 of 10 | survivor count (dose: 3.13 mg/kg/injection, schedule: Q01DX009 (ip), vehicle: saline with Tween-80): 10 of 10 | survivor count (dose: 6.25 mg/kg/injection, schedule: Q01DX009 (ip), vehicle: saline with Tween-80): 10 of 10 | survivor count [1]: 10 of 10 | T/C (dose: 12.5 mg/kg/injection, schedule: Q04DX003 (ip), vehicle: saline with Tween-80): 125 % of control | survivor count [2]: 10 of 10

CC(C)CC(NC(=O)CNC(=O)/C=C/c1ccco1)C(N)=O (stereo not drawn)
T/C [2]: 128 % of control

Clc1ccc2nc(CI)c(CI)nc2c1
survivor count [1]: 10 of 10 | survivor count (dose: 50.0 mg/kg/injection, schedule: Q01DX009 (ip), vehicle: saline with Tween-80): 9 of 10 | survivor count (dose: 100.0 mg/kg/injection, schedule: Q01DX009 (ip), vehicle: saline with Tween-80): 6 of 10 | survivor count (dose: 100.0 mg/kg/injection, schedule: Q04DX003 (ip), vehicle: saline with Tween-80): 5 of 10 | survivor count (dose: 200.0 mg/kg/injection, schedule: Q04DX003 (ip), vehicle: saline with Tween-80): 0 of 10
